Results of single-concentration screens

The chains behind the UniProt entries cited, without tags or fusion partners.
UniProt P9WFT3, whole entry: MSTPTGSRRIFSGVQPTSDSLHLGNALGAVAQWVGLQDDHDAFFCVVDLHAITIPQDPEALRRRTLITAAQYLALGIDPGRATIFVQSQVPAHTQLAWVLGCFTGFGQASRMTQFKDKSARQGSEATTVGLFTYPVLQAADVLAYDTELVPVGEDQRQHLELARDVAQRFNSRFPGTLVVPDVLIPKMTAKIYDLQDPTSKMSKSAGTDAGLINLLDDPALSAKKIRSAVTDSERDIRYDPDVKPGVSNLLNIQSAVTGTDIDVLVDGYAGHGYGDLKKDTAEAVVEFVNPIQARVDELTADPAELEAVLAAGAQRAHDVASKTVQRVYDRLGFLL
UniProt P9WPC5, whole entry: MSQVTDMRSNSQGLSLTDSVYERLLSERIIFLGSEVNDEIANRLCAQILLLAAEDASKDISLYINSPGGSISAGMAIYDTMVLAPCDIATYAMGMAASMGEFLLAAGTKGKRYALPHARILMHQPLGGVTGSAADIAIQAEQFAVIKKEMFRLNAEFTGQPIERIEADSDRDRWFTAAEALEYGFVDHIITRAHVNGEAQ
UniProt P9WPC3, whole entry partner: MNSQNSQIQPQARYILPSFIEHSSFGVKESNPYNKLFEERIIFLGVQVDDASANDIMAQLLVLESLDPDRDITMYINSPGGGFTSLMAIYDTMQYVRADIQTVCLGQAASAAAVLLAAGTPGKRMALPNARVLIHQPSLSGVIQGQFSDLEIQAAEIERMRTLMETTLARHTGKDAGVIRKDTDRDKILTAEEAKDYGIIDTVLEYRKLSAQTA
UniProt P9WNZ1, whole entry: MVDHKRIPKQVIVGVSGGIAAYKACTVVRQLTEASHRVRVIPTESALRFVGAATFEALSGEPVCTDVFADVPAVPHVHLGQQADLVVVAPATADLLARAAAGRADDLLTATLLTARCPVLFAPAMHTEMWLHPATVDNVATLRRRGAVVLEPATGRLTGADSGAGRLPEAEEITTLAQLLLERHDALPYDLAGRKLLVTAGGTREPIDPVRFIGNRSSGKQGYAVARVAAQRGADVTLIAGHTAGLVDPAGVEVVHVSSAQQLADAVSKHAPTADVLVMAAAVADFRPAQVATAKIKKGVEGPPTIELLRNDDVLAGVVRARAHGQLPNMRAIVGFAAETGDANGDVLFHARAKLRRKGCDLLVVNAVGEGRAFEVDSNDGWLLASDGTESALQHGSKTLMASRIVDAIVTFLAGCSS
UniProt I6X8D2, whole entry: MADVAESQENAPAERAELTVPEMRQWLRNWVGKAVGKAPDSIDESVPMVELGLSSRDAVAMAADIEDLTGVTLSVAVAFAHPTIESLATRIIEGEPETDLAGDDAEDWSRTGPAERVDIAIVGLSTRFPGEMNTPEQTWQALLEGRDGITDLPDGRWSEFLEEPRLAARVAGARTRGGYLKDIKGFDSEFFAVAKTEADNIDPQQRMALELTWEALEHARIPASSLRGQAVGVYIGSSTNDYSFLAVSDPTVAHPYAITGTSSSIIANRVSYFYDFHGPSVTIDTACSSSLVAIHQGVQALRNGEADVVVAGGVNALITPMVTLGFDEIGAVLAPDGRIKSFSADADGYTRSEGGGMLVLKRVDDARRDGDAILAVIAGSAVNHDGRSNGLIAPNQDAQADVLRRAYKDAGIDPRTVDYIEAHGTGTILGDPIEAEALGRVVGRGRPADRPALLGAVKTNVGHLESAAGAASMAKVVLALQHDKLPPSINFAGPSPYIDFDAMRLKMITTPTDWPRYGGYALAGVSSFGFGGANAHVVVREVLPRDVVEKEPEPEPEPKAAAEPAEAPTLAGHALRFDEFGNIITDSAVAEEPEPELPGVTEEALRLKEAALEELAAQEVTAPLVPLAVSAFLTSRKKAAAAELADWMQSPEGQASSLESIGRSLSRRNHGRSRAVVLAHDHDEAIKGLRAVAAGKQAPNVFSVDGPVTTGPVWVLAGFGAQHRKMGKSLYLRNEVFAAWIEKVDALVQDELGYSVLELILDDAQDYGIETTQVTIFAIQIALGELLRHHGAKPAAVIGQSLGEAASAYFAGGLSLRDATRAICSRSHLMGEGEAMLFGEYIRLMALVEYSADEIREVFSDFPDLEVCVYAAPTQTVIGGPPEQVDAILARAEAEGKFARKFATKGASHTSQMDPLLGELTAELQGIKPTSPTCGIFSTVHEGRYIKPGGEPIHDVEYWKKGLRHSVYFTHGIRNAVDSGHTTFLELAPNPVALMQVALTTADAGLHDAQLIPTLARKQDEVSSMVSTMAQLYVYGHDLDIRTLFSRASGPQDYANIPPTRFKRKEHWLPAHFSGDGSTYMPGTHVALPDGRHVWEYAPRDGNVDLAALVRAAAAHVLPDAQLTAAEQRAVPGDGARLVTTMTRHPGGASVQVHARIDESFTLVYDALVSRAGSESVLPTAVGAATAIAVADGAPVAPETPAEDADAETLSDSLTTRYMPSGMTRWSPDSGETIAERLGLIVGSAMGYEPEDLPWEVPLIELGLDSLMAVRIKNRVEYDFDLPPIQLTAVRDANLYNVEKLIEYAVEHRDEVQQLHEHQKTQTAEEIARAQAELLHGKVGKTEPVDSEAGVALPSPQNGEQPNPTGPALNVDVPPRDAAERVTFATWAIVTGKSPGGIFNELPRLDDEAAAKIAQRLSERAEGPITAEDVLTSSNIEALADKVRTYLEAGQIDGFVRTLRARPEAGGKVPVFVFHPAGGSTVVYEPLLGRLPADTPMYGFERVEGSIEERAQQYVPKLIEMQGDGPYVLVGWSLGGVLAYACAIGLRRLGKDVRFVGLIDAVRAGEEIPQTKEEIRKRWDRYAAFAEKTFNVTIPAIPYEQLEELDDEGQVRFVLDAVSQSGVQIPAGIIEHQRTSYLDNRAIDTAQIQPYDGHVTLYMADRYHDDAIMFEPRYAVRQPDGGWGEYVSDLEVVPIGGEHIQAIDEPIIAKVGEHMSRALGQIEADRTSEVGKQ

The values are deposited in ChEMBL (CHEMBL3988442, “University of Dundee, Small-Polar-MMV Screening Library” (2021)).

Values are the deposited “Percent Effect”, in %. The controls that fix the scale are not given in the record; negative values are as filed. This is an unselected part of the compounds tested. A dash means the value is not listed here; it may have been measured.

MtTrpRS: 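Tryptophan-tRNA ligase, Mycobacterium tuberculosis (UniProt P9WFT3). Enzyme assay of tryptophanyl-tRNA synthetase; the read-out is not stated. Compounds at 10 µM. Higher most likely means stronger inhibition; the record gives no direction and few retests gave an IC50. About 65,000 compounds were tested under these conditions; 0.098% (about 64) showed 50% or more at least once.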
Toxoplasma: 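Assay of Toxoplasma gondii numbers, read through their beta-galactosidase reporter with a colour substrate. Concentration: 10 µM. Higher reads as fewer parasites (inferred from which compounds were picked for retests). Of about 67,000 compounds tested this way, about 260 (0.38%) reached 50% or more in at least one test.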
ClpP1P2: 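ClpP1P2, Mycobacterium tuberculosis (UniProt P9WPC5 and UniProt P9WPC3). Protease assay of ClpP1P2, read by the AMC dye that it sets free. Compounds at 50 µM. Direction is inferred from only a few compounds that gave an IC50; most scored high, so higher reads as stronger inhibition. Most other retested compounds had strongly negative values. Size under these conditions: about 69,000 compounds, about 10 of them at 50% or above in at least one test.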
CoaBC: 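Enzyme assay of CoaBC with a phosphate dye (Biomol Green) read at 650 nm. Target: Coenzyme A biosynthesis protein CoaBC, Mycobacterium tuberculosis (UniProt P9WNZ1). Tested at 30 µM. Higher reads as stronger inhibition, judged from the few compounds that gave an IC50. Most strong results did not repeat in a second test. Of about 67,000 compounds tested this way, about 40 (0.06%) reached 50% or more in at least one test.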
Pks13 thioesterase: 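Polyketide synthase Pks13, Mycobacterium tuberculosis (UniProt I6X8D2). Enzyme assay of the thioesterase domain of polyketide synthase 13; the read-out is not stated. Compounds at 30 µM. Higher reads as stronger inhibition (inferred from which compounds were picked for retests). Of about 67,000 compounds tested this way, about 300 (0.46%) reached 50% or more in at least one test.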

| # | compound | MtTrpRS | Toxoplasma | ClpP1P2 | CoaBC | Pks13 thioesterase |
|---|---|---|---|---|---|---|
| 1 | `NC(=O)c1csc(N2CCN(C3CCc4ccccc4C3)CC2)n1` (configuration not stated) | 4.279% | -2.548% | -10.38% | 3.674% | 6.154% |
| 2 | `CC(C)CCN1CC2(CCCN(C(=O)CNC(=O)N(C)C)C2)CCC1=O` (configuration not stated) | 8.228% | 10.39% | -12.39% | -0.4592% | -2.846% |
| 3 | `Cl.NCc1ccc(Oc2ccc(F)c(F)c2)cc1C(F)(F)F` | - | 37.16% | - | - | - |
| 4 | `O=C(CS(=O)(=O)Cc1cccc(Br)c1)Nc1cn[nH]c1` | -2.315% | 11.35% | -0.1445% | -1.474% | 13.59% |
| 5 | `CN(C)C(=O)C1CCC2(CCN(C(=O)Nc3cccc(F)c3)CC2)O1` (configuration not stated) | - | 8.129% | 2.207% | -6.807% | -16.78% |
| 6 | `O=C(CC1NC(N2CCc3ccccc3C2)=NC1=O)Nc1ccccc1` (configuration not stated) | -5.432% | 0.2024% | -23.77% | -1.611% | -10.61% |
| 7 | `CCN1Cc2nc(OC)c(CNC(=O)C3CCCN(C)C3)cc2C1=O` (configuration not stated) | -1.419% | 15.97% | 5.552% | 3.367% | -13.84% |
| 8 | `OC1CCN(Cc2ccc(CNc3ncc(Cl)cc3F)cc2)CC1` | -4.128% | 2.599% | -0.6745% | -14.56% | -23.12% |
| 9 | `O=C(O)c1cc(-c2ccncc2)cc(S(=O)(=O)NCc2ccccn2)c1` | -6.351% | -12.65% | 0.8861% | -8% | -29.43% |
| 10 | `CN1CCN(Cc2noc(-c3cc(-c4ccc(F)cc4)n[nH]3)n2)CC1` | -6.276% | 17.05% | 16.93% | -2.981% | -7.34% |
| 11 | `CCn1cc(CN(C)C(=O)c2cc(C(F)(F)F)n(C)n2)cn1` | 1.22% | -7.755% | -6.619% | -1.899% | -4.529% |
| 12 | `[H][C@@]12CN(Cc3ccncc3)CC[C@]1([H])CN(c1cncnc1)C2` | - | -9.706% | - | - | - |
| 13 | `CNC(=O)[C@@H](CC(C)C)N1CCC[C@H]1C(=O)N(C)Cc1ccccc1.Cl` | - | 6.358% | - | - | - |
| 14 | `O=C(O)C(F)(F)F.[H][C@@]12CN(C(=O)c3ccncc3F)C[C@]1([H])OCCN2CC1CC1` | - | -0.9043% | - | - | - |
| 15 | `CC1COC2(CCN(C(=O)c3ncoc3C(C)C)CC2)O1` (configuration not stated) | -2.028% | -5.942% | -3.419% | 2.885% | -23.54% |
| 16 | `CCc1noc(-c2cccc(NC(=O)C(C)(C)C)c2)n1` | 1.127% | -9.29% | -16.57% | 5.844% | -7.117% |
| 17 | `O=C(O)C(F)(F)F.[H][C@@]12CCN(C(=O)Cc3cccs3)C[C@]1([H])[C@@H](CN(C)C)OC2` | - | 1.372% | - | - | - |
| 18 | `CC1CN(c2ccc(C#N)cn2)CCN1c1ccc2nncn2n1` (configuration not stated) | -4.68% | -15.82% | -14.2% | 8.367% | -12.86% |
| 19 | `Cc1nn(C)c(N2CCOCC2)c1CNC1COc2ccccc2C1` (configuration not stated) | 0.9169% | 6.778% | 12.99% | -3.15% | -16.38% |
| 20 | `CC(=O)NCCC(=O)NC(C)c1sc(-c2ccccc2F)nc1C` (configuration not stated) | -4.438% | 1.775% | -4.091% | 5.804% | -9.427% |
| 21 | `CCSCc1ccc(C(=O)N2CCCN(CC(N)=O)CC2)cc1` | -4% | 0.9074% | 25.75% | -0.3367% | -13.82% |
| 22 | `CS(=O)(=O)N1CCCCC1c1ccc(Nc2cnccn2)nc1` (configuration not stated) | -0.9791% | -17.63% | -0.6869% | 9.201% | 10.08% |
| 23 | `Cc1nnc(Nc2cccc(C3CCCN(Cc4ncc[nH]4)C3)n2)s1` (configuration not stated) | 3.922% | 12.54% | -9.68% | 6.057% | 2.005% |
| 24 | `CC(C)n1cnc2c(N3CCCC3)nc(C3CCNCC3)cc21.Cl.Cl` | - | 2.873% | - | - | - |
| 25 | `Cc1cccc(CN2CCC3(CCCN(C(=O)N4CCCC4)C3)C2=O)n1` (configuration not stated) | 5.817% | - | -3.179% | -4% | 3.385% |
| 26 | `O=C(c1cccn1Cc1cccs1)N1CCCC1Cn1cccn1` (configuration not stated) | -0.09747% | 1.444% | -2.119% | 6.511% | -12.25% |
| 27 | `Cc1ncc2c(n1)CN(Cc1nc(-c3ccsc3)no1)CC2` | -3.948% | 12.32% | -18.06% | -0.3911% | -1.879% |
| 28 | `CCS(=O)(=O)N1CCCC2(CCCN2Cc2cccc(F)c2)C1.O=C(O)C(F)(F)F` (configuration not stated) | - | 0.5851% | - | - | - |
| 29 | `COCCN1C(=O)CC[C@@H]2[C@H]1CCN2S(=O)(=O)c1cccs1` | - | - | -10.42% | -2.723% | -53.83% |
| 30 | `CC(C)c1ocnc1C(=O)NC1(c2cccc(F)c2)CCOCC1` | 5.154% | -2.075% | -0.5466% | -2.558% | -20.54% |
| 31 | `CCOc1ccc(CNCCCn2ccnc2)cc1Br` | 0.000009% | -5.26% | 16.13% | 6.326% | -32.96% |
| 32 | `CC(C)c1nc2c(n1C)CCN(CCCOc1ccc(C#N)cc1)C2` | -2.985% | -12.21% | -13.52% | 10.91% | -5.431% |
| 33 | `CCN(CC(=O)NC(C)C)S(=O)(=O)N1CCC(C)C1` (configuration not stated) | -4.526% | -1.223% | 4.588% | -2.203% | -7.641% |
| 34 | `CCOCC(=O)N1CCC2(CC1)COCCN2CCOC.O=C(O)C(F)(F)F` | - | -0.4782% | - | - | - |

Repeated from the top, 3 entries:

NC(=O)c1csc(N2CCN(C3CCc4ccccc4C3)CC2)n1 (configuration not stated) gave MtTrpRS: 4.279%; Toxoplasma: -2.548%; ClpP1P2: -10.38%; CoaBC: 3.674%; Pks13 thioesterase: 6.154%.
CC(C)CCN1CC2(CCCN(C(=O)CNC(=O)N(C)C)C2)CCC1=O (configuration not stated) gave MtTrpRS: 8.228%; Toxoplasma: 10.39%; ClpP1P2: -12.39%; CoaBC: -0.4592%; Pks13 thioesterase: -2.846%.
Cl.NCc1ccc(Oc2ccc(F)c(F)c2)cc1C(F)(F)F gave Toxoplasma: 37.16%.